Test results from the supplement of paper PMC10849652.
The list shows a part of the results.

By UniProt entry, the sequences of proteins in these tests, tags left out. Where a name states a change or a piece, a line headed by the entry shows the natural chain unless it says otherwise.
UniProt Q9HBD1: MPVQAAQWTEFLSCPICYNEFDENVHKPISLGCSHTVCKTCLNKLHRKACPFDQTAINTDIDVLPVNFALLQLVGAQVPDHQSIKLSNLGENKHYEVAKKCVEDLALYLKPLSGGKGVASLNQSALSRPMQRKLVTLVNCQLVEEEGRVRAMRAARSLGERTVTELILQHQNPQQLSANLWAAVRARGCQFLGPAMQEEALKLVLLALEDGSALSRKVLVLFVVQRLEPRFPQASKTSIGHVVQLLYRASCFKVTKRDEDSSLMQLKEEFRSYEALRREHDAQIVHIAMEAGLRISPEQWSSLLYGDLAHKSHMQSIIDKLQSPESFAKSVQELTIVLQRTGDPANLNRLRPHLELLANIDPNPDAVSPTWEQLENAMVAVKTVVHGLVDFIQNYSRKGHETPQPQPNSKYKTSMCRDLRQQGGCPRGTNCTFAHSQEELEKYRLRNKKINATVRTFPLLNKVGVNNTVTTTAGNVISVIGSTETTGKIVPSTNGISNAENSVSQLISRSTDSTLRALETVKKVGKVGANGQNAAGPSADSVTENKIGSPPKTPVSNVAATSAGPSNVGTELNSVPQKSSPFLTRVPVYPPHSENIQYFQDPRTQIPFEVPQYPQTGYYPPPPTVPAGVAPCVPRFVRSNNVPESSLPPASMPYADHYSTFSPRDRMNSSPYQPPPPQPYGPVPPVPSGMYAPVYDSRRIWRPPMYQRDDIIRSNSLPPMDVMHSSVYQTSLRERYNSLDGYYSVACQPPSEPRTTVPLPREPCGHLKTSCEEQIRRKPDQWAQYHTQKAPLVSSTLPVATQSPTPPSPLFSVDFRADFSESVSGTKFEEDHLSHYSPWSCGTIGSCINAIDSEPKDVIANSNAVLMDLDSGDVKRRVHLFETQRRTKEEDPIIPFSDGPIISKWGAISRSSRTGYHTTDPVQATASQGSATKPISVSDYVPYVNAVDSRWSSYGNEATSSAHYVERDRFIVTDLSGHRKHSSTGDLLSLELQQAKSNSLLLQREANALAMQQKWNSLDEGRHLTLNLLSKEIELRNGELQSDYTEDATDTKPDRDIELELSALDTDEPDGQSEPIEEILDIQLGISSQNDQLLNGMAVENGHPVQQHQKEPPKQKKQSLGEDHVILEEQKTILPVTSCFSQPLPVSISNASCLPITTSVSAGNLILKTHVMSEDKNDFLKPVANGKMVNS
UniProt Q9H0Z9: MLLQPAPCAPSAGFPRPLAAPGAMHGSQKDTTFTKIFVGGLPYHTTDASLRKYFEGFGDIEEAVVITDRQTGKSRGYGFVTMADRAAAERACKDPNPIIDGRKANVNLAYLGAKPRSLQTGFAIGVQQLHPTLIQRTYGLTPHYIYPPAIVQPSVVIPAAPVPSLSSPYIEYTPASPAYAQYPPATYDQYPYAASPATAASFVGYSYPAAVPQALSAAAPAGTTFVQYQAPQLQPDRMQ
UniProt O43566: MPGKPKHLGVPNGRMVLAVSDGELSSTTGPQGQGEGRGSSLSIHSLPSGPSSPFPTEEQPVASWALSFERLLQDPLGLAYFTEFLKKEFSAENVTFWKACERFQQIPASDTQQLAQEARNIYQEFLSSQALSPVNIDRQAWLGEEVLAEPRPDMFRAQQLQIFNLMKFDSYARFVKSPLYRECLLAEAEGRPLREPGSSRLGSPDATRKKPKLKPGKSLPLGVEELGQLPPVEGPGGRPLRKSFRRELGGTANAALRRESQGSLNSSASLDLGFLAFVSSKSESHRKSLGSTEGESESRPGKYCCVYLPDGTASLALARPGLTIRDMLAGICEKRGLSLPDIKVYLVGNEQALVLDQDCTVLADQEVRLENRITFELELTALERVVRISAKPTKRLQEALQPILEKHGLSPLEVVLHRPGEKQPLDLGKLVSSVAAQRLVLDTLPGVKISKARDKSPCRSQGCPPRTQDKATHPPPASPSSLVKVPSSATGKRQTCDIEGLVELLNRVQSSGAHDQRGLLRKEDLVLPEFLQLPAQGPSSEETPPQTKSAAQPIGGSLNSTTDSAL
UniProt Q96H35: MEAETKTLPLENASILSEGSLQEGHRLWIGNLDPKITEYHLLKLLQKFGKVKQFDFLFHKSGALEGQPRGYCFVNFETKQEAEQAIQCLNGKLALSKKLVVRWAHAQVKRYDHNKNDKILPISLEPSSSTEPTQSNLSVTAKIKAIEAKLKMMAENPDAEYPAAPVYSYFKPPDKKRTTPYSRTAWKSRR

Key:
Assay in all cases: log2 fold change, soluble protein after heating vs DMSO (PISA); higher = thermal stabilisation; K562 lysate, 10 uM; active = over 0.2 and 3.5 SD of the protein, either way, in both replicates (recomputed)
alvocidib = compound: CN1CC[C@H](c2c(O)cc(O)c3c(=O)cc(-c4ccccc4Cl)oc23)[C@H](O)C1 [alvocidib]
In short: (§1)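 Dounce homogenisation of K562 pellets in PBS pH 7.4 with 1 mM MgCl2 produced a crude extract, used at 1 mg/mL protein. Exposure to 10 μM compound lasted 30 min, and aliquots were then heated for 3 min across 48°C-58°C, pooled and brought to 0.5% NP-40 at 4°C. The supernatant after 21,000xg for 90 min was quantified by TMTpro 16plex LC-MS/MS with channel sums equalised. Duplicate values are given as log-two fold change in thermal stability relative to solvent controls.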

Tubastatin A = compound: CN1CCc2c(c3ccccc3n2Cc2ccc(C(=O)NO)cc2)C1 [Tubastatin A]
In short: as §1

defactinib = compound: CNC(=O)c1ccc(Nc2ncc(C(F)(F)F)c(NCc3nccnc3N(C)S(C)(=O)=O)n2)cc1 [defactinib]
In short: as §1

[1] = compound: CNc1nc(-c2ccc3c(N)n[nH]c3c2)cc(N2C[C@@H](C(=O)NC3CCCCC3)CC[C@H]2C)n1
In short: as §1

encorafenib = compound: COC(=O)N[C@@H](C)CNc1nccc(-c2cn(C(C)C)nc2-c2cc(Cl)cc(NS(C)(=O)=O)c2F)n1 [encorafenib]
In short: as §1

[2] = compound: COC(=O)[C@H](CCSC)NC(=O)C1=C(C=C(C=C1)NC[C@H](CS)N)C2=CC=CC=C2
In short: as §1

[3] = compound: COc1cc2nc(-c3cc(F)ccc3O)nc(N[C@@H]3CNC[C@H]3C(C)(C)O)c2cc1OC
In short: as §1

lapatinib = compound: CS(=O)(=O)CCNCc1ccc(-c2ccc3ncnc(Nc4ccc(OCc5cccc(F)c5)c(Cl)c4)c3c2)o1 [lapatinib]
In short: as §1

crizotinib = compound: C[C@@H](Oc1cc(-c2cnn(C3CCNCC3)c2)cnc1N)c1c(Cl)ccc(F)c1Cl [crizotinib]
In short: as §1

[4] = compound: C[C@H](C1=CC=C(C=C1)C(=O)NC2=C3C=CNC3=NC=C2)N
In short: as §1

duvelisib = compound: C[C@H](Nc1ncnc2nc[nH]c12)c1cc2cccc(Cl)c2c(=O)n1-c1ccccc1 [duvelisib]
In short: as §1

gandotinib = compound: Cc1cc(Nc2cc(CN3CCOCC3)c3nc(C)c(Cc4ccc(Cl)cc4F)n3n2)n[nH]1 [gandotinib]
In short: as §1

tozasertib = compound: Cc1cc(Nc2cc(N3CCN(C)CC3)nc(Sc3ccc(NC(=O)C4CC4)cc3)n2)n[nH]1 [tozasertib]
In short: as §1

doramapimod = compound: Cc1ccc(-n2nc(C(C)(C)C)cc2NC(=O)Nc2ccc(OCCN3CCOCC3)c3ccccc23)cc1 [doramapimod]
In short: as §1

[5] = compound: Cc1cccc(CC(=O)N2CCc3c2ccc(-c2cn(C)c4ncnc(N)c24)c3F)n1
In short: as §1

[6] = compound: CNC(=O)C1=CC=CC=C1NC2=NC(=NC=C2Cl)NC3=C(C=C(C=C3)N4CCOCC4)OC
In short: as §1

alisertib = compound: COc1cc(Nc2ncc3c(n2)-c2ccc(Cl)cc2C(c2c(F)cccc2OC)=NC3)ccc1C(=O)O [alisertib]
In short: as §1

gefitinib = compound: COc1cc2ncnc(Nc3ccc(F)c(Cl)c3)c2cc1OCCCN1CCOCC1 [gefitinib]
In short: as §1

pictilisib = compound: CS(=O)(=O)N1CCN(Cc2cc3nc(-c4cccc5[nH]ncc45)nc(N4CCOCC4)c3s2)CC1 [pictilisib]
In short: as §1

bafetinib = compound: Cc1ccc(NC(=O)c2ccc(CN3CC[C@H](N(C)C)C3)c(C(F)(F)F)c2)cc1Nc1nccc(-c2cncnc2)n1 [bafetinib]
In short: as §1

Measured: log2 fold change

RC3H2 (UniProt Q9HBD1)
inactive: alvocidib -0.011 | Tubastatin A -0.21 | defactinib 0.085 | [1] -0.062 | encorafenib 0.091 | [2] -0.165 | [3] -0.001 | lapatinib -0.16 | crizotinib 0.017 | [4] -0.051 | duvelisib 0.003 | gandotinib 0.031 | tozasertib 0.119 | doramapimod -0.002 | [5] 0.21

RBM38 (UniProt Q9H0Z9)
inactive: alvocidib 0.036 | Tubastatin A 0.071 | [6] 0.062 | defactinib -0.057 | [1] -0.055 | encorafenib 0.084 | [2] -0.049 | alisertib 0.05 | [3] -0.023 | gefitinib -0.067 | lapatinib 0.084 | crizotinib 0.101 | [4] -0.014 | duvelisib -0.073 | gandotinib -0.001 | tozasertib 0.055 | doramapimod 0.133 | [5] -0.002

RGS14 (UniProt O43566)
inactive: alvocidib -0.344 | Tubastatin A 0.053 | [6] 0.005 | [1] -0.011 | encorafenib -0.229 | [2] -0.114 | alisertib -0.053 | [3] -0.033 | gefitinib -0.152 | lapatinib 0.043 | pictilisib 0.039 | crizotinib -0.012 | [4] -0.397 | duvelisib 0.039 | gandotinib 0.197 | tozasertib 0.103 | doramapimod -0.014 | bafetinib -0.283 | [5] 0.18

RBM18 (UniProt Q96H35)
inactive: alvocidib 0.13 | Tubastatin A 0.002 | defactinib 0.093 | encorafenib 0.119 | [2] -0.03 | alisertib 0.014 | gefitinib -0.096 | [4] 0.274 | gandotinib 0.077 | tozasertib 0.081 | [5] -0.051
